Data: patent US20180215833A1 (published 2018)
These are yes or no findings as the source states them, for the method shown.

The chains behind the UniProt entries cited, without tags or fusion partners. Residues count along the entry.
UniProt P16056, residues 25-929: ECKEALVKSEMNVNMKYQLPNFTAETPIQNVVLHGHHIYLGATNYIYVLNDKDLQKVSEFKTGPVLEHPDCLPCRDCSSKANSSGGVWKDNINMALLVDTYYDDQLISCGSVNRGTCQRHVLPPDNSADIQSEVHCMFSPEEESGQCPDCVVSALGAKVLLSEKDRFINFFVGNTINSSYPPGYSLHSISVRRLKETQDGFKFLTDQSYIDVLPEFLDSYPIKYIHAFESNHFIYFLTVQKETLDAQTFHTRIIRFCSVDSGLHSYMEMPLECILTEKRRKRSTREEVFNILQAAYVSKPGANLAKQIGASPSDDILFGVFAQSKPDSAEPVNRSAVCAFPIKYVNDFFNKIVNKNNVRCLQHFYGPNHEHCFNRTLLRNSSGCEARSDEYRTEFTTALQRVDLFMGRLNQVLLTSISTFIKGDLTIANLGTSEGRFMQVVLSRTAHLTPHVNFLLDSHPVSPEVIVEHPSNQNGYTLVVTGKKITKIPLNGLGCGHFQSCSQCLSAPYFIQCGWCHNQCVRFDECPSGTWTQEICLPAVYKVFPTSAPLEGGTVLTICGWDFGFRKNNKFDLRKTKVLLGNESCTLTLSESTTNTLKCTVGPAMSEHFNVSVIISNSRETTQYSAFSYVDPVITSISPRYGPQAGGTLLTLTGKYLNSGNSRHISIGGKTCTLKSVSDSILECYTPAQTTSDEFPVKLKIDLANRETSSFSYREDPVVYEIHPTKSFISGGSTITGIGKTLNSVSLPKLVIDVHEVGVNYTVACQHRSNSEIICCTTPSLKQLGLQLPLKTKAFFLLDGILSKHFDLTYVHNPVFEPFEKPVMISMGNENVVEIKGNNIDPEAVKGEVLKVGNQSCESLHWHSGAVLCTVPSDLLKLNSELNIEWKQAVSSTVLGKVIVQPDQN

What follows are binders tested against mouse c-Met (R&D systems cat no: 527-ME) (mouse) (UniProt P16056) (assay: ELISA, mAb immobilised (2 µg/ml), mouse c-Met added, anti-His detection).

Binder | binding
40B8 (antibody, V domains shown) VH: EVQLVQPGAELRNPGASVKVSCKASGYTFTNYVIDWVRQAPGQGLEWMGRIDPENGGTRYAQKFQGRVTFTADTSTSTAYVELSNLRSEDTAVYYCARLEDYELAYDYWGQGTQVTVSS VL: DIVMTQTPSSVTASAGEKVTINCKSSQSVLLSSNQKNYLAWYQQRLGQSPRLLIYWASTRESGVPDRFSGSGSTTDFTLTISSFQPEDAAVYYCQQGVSFPLTFGQGTKVELK | no binding (tested: 100 ng/ml mouse c-Met)
36C4 (antibody, V domains shown, also called mAb 36C4; SIMPLE antibody 36C4) VH: QVQLVESGPGLVKPSQTLSLTCAVSGGSITTNYYYWSWIRQSPGKGLEWMGVIAYDGSTDYSPSLKSRTSISRDTSKNQFSLQLSSVTPEDTAVYYCARDVRVIATGWATANALDAWGQGTLVTVSS VL: QSVLTQPPSVSGSPGKTVTISCAGTSSDVGYGNYVSWYQQLPGTAPKLLIFAVSYRASGIPDRFSGSKSGNTAFLTISGLQSEDEADYYCASYRSSNNAAVFGGGTHLTVL | no binding (tested: 100 ng/ml mouse c-Met)
20A11 (antibody, V domains shown) VH: QVQLVESGGGLVQPGGSLRLSCAASGFTFDDYAMSWVRQAPGKGLEWVSAISWNGSSTYYAESMKGRFTISRDNAKNTLYLQMNSLKSEDTAVYYCAKDLIGSHDYWGQGTQVTVSS VL: QAVLTQPPSVSGTLGKTLTISCAGTSSDVGYGNYVSWYQQLPGTAPKLLIYAVSTRASGIPDRFSGSKSGNTASLTISGLQSEDEADYYCASYRSSNNYAFGAGTKLTVL | no binding (tested: 100 ng/ml mouse c-Met)
13E6 (antibody, V domains shown, also called mAb 13E6) VH: QVQLQESGGDLVQPGGSLRLSCAASGFTFDDYVMNWVRQAPGKGLEWISAINWNGGSTYYAESMKGRFTISRDNAKNTLYLQMYSLQSDDTAVYYCVKDTVVSGNGYWGQGTQVTVSS VL: QSVLTQPPSVSGTLGKTVTISCAGTSSDIGDYNYVSWYQQLPGTAPKLLIYDVNKRASGIPDRFSGSKSGNTASLSISGLQSEDEADYYCASYRSRNDYAFGGGTKLTVL | no binding (tested: 100 ng/ml mouse c-Met)
12G4 (antibody, V domains shown) VH: QLQLVESGGGMAQPGGSLKLSCAASGFTFDDYAMTWVRQAPGKGLEWLSTISWNDINTYYAESMKDRFTISRDNAKNTLYLQMNSLESEDTAVYYCAKRRDNYYGTSGEYDYWGQGTQVTVSS VL: QSALTQPPSVSGTLGKTVTISCAGTSSDIGNYNYVSWYQQLPGTAPKLLIYEVNKRPSGIPDRFSGSKSGNTASLSISGLQSEDEADYYCASYRSSNNVVFGGGTKLTVL | no binding (tested: 100 ng/ml mouse c-Met)
38H10 (antibody, V domains shown) VH: EVQLVQPGVELRNPGASVKVSCKASGYIFTMNSIDWVRQAPGQGLEWMGRIDPEDGGTKYAQKFQGRVTFTADTSTSTAYVELNSLRSEDTAVYYCARVDDYYLGYDYWGQGTQVTVSS VL: EIVMTQSPSSVTASAGEKVTINCKSSQSVLWRSNQKNYLAWYQQRLGQSPRLLISWASIRESGVPDRFSGSGSTTDFTLTISSFQPEDAAVYYCQQGYSFPYTFGSGTRLEIK | no binding (tested: 100 ng/ml mouse c-Met)
